From PMC8166973
No constants are given. Whether binding was seen depends on the method and setting. Some binding calls cover weakened binding; strength is not graded here.

Sequences of proteins named here, by UniProt entry; tags and fusion partners are left off. Residues count along the entry.
UniProt P05622, residues 32-561: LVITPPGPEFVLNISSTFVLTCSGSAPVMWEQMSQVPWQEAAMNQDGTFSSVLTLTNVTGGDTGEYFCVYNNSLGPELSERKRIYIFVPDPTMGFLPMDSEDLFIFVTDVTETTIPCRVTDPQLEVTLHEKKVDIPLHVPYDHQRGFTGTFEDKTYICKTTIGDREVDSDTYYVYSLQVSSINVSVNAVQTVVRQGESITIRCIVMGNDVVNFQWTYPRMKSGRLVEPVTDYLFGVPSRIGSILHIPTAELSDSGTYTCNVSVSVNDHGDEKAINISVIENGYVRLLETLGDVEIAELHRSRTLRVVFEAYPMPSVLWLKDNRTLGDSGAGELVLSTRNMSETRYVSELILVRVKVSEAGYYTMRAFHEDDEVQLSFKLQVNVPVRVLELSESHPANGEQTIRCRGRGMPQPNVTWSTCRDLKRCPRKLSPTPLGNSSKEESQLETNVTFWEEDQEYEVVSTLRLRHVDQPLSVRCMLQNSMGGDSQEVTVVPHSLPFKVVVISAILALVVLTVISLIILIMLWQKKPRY
UniProt P01127, residues 82-190: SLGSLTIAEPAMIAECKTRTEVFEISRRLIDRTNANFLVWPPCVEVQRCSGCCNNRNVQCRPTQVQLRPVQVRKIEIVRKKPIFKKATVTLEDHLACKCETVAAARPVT

Target: mouse PDGFRβ (mPDGFRβ) fragment (amino acids 1-561) fused to GFP (mouse) (UniProt P05622)
Experiment: flow cytometry on cells; biotinylated proteins oligomerised around streptavidin-phycoerythrin; HEK293F cells transfected with PDGFRβ(1-561)-GFP; 30 min on ice in PBS + 2% FBS; gMFI of GFP+ over GFP- cells in the same well (gMFI Index); 3-log concentration range; also with 10 mM EDTA or 10 µg/mL anti-αv-integrin mAb, without effect; only the binder purified

- binding: binds
Substance: homodimeric form of human platelet derived growth factor B (hPDGF-BB) (from UniProt P01127 82-190) (ligand)
